# Data from US20240050522A1 (The Regents of the University of Michigan, priority 2020, published 2024).
# End groups of sequences in plain letters are not given here.
# Experiment: peptide made by a vendor
# Conditions: whole synthesis, HPLC
sequence,measurement,setting,value
PVLDLFRELLNELLEALKQKLK,purity (crude or final not stated),run 1,approximately 85%
same,purity (crude or final not stated),run 2,˜85%
